# Results as given in paper PMC7819943, “Rice protein-binding microarrays: a tool to detect cis-acting elements near promoter regions in rice”.
# By UniProt entry, the sequences of proteins in these tests, tags left out.
# UniProt Q0JBA9, entry or part of it: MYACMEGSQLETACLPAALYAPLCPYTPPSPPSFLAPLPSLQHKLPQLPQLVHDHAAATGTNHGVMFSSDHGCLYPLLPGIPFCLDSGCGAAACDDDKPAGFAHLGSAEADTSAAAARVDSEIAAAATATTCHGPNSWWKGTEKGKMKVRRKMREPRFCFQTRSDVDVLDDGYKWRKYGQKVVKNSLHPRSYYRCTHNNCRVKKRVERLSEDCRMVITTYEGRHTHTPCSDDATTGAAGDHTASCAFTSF
# Some of the results follow.
# Target: OsWRKY34 (Oryza sativa, UniProt Q0JBA9 1-250)
# Experiment: protein-binding microarray (RPBM); PBS, 2% BSA, 51.3 ng/ul salmon testes DNA, 50 uM zinc acetate, 200 nM TF, 25 C, 1 h; high values mean tight binding
# Conditions: protein: recombinant; tags: N-terminal polyhistidine and DsRed monomer fusion (pET32a); label: CyDye5-dUTP incorporated in the synthesized complementary strand; 3' TTTTT single-stranded linker to array surface; dsDNA, one strand shown
# How it was run: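 Binding signal here means per-feature fluorescence intensity in arbitrary units. The values were read on an Axon 4000B scanner after a custom Agilent array, double-stranded by primer extension with Cy5-dUTP, was incubated with 200 nM protein at 25 °C for 1 h in PBS with 2% BSA, salmon testes DNA and 50 µM zinc acetate, then washed. The proteins were transcription factors with an N-terminal polyhistidine tag and DsRed, expressed in E. coli BL21-CodonPlus and purified on Ni–NTA.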
row,Sequence,binding signal
1,ATGGTAGGATCGTGTGTGTGTGTGTGTACATATATTGTTTCGGAGTCACCTAGTGCAG,10300 fluorescence intensity (a.u.)
2,GTTGTTTATTTATGTTGGCTTTCTCTTTTCTAGTATATAGCGGAGTCACCTAGTGCAG,9210 fluorescence intensity (a.u.)
3,ACTGTTCTTGTGTCTTTGTTAGGAGTAGCTAACAATTAGCCGGAGTCACCTAGTGCAG,9500 fluorescence intensity (a.u.)
4,AGCTTCTAGAATATTCTAGATCGTGGTTAGTGCATCCATGCGGAGTCACCTAGTGCAG,8210 fluorescence intensity (a.u.)
5,AATATGATACTCTCACTCGGTCAATTTGGCTGGATATGTTCGGAGTCACCTAGTGCAG,8210 fluorescence intensity (a.u.)
6,TTTCCCCTCGCTAGCTGTGTGCGCACCACCACCACCCAACCGGAGTCACCTAGTGCAG,9010 fluorescence intensity (a.u.)
7,GCTGCTGCTGCTGCATGGTGTGATGGTGGTGGTGGTGGTCCGGAGTCACCTAGTGCAG,9330 fluorescence intensity (a.u.)
8,CCGCTCGATTCCCCGCGCTTTTATTCCCTCCTCTCTCTCTCGGAGTCACCTAGTGCAG,8030 fluorescence intensity (a.u.)
9,AACCACCGACACTTTCTCTGTCAAAACTAGCTGGAACTATCGGAGTCACCTAGTGCAG,8090 fluorescence intensity (a.u.)
10,GTGGTTTGTTTGAACGATTTTCAACCCAGAAATGTACTTACGGAGTCACCTAGTGCAG,8650 fluorescence intensity (a.u.)
11,TCCCTCAATTTGTCGACGAGTCTGAATTCATCCCTGAACTCGGAGTCACCTAGTGCAG,8280 fluorescence intensity (a.u.)
12,GCCCAATTTTGACCATTCGTCTTATTTAAAAATTTGTTAACGGAGTCACCTAGTGCAG,8550 fluorescence intensity (a.u.)
13,CATCATAAGCTATATCCATCTTTGCAGTTTGTACTTTGTGCGGAGTCACCTAGTGCAG,9650 fluorescence intensity (a.u.)
14,GTTTGTTGGGAGGGCCATGGTGTGAAGCCATTTTCCACCACGGAGTCACCTAGTGCAG,9330 fluorescence intensity (a.u.)
15,TTCGGTTCTGTCCCTAGCACATGAGACAACTAGCCGGATGCGGAGTCACCTAGTGCAG,8160 fluorescence intensity (a.u.)
16,GTACGTACATACCATATAGGAAGAGGGTGGGTTGTTGGGGCGGAGTCACCTAGTGCAG,10700 fluorescence intensity (a.u.)
17,TGCGCGCTCGCTCTTCTCCACATCTCGTGGACTCGTTCGTCGGAGTCACCTAGTGCAG,8280 fluorescence intensity (a.u.)
18,GCTCCTGTCTGATTCTGTTACATGTCTTGCTTGGCCAGAGCGGAGTCACCTAGTGCAG,9780 fluorescence intensity (a.u.)
19,CCAAACCCAACCCTCGACGCCAATTAAACACCAATTTTCTCGGAGTCACCTAGTGCAG,8920 fluorescence intensity (a.u.)
20,CTATGCTCATCCAATCTCTGAAGCTCAGACCATCTCTCCACGGAGTCACCTAGTGCAG,8100 fluorescence intensity (a.u.)
21,AGCTCGTTACCCCAAACCCTACCCATCCGCGGTCAGCTATCGGAGTCACCTAGTGCAG,8560 fluorescence intensity (a.u.)
22,ACCTTTGCTCACGATCCCAATGGCTTTAATTATGTACCACCGGAGTCACCTAGTGCAG,8830 fluorescence intensity (a.u.)
23,TTTCATATCTACACCTATCTCTAGTATTTTTTTCATGAATCGGAGTCACCTAGTGCAG,9840 fluorescence intensity (a.u.)
24,ACCCTGACAAAATTCACCAGTACTCCTAATCCACGCCACCCGGAGTCACCTAGTGCAG,9520 fluorescence intensity (a.u.)
25,GTCTTGAGTTGAAAATGTTACTGTTTTTTTTCTACAAACTCGGAGTCACCTAGTGCAG,8060 fluorescence intensity (a.u.)
26,AAAAAAATCTCGTTGTTACTGTCTATAGATCACTATATTACGGAGTCACCTAGTGCAG,8570 fluorescence intensity (a.u.)
27,TTACATATTTAATCTCGTGCAAGCTTACAACATGTTCTATCGGAGTCACCTAGTGCAG,8700 fluorescence intensity (a.u.)

# Copied from the list.
# In binding signal, ACCCTGACAAAATTCACCAGTACTCCTAATCCACGCCACCCGGAGTCACCTAGTGCAG has 9520 fluorescence intensity (a.u.)
# In binding signal, ACTGTTCTTGTGTCTTTGTTAGGAGTAGCTAACAATTAGCCGGAGTCACCTAGTGCAG has 9500 fluorescence intensity (a.u.)

# Remaining list, next part:

row,Sequence,binding signal
1,CGAGTGCAATGTGATTGGTAGGGGTGGCTCAGGGAAAGTGCGGAGTCACCTAGTGCAG,8120 fluorescence intensity (a.u.)
2,GTACCCCTAACTGTTACTCCCTCCGTTTCACAATGTAAGTCGGAGTCACCTAGTGCAG,9130 fluorescence intensity (a.u.)
3,TTCTACCCTGGTGGCGACCTCCACTCGCTCTGCCACCGCACGGAGTCACCTAGTGCAG,10600 fluorescence intensity (a.u.)
4,TCTCTCTTTTCTTTATCCTACTATCTCTGTTTACCTTTTCCGGAGTCACCTAGTGCAG,12100 fluorescence intensity (a.u.)
5,TCTTTTCACTCCTGGCTAACCCTAGTACTAGTATTGCATTCGGAGTCACCTAGTGCAG,10900 fluorescence intensity (a.u.)
6,CCATTCCTCCATCCTGCCGTTGCCACGTTCCCGTGTCGTTCGGAGTCACCTAGTGCAG,9050 fluorescence intensity (a.u.)
7,TTTTTCCTGAGCTAATCTGCAGTTCTTCGTGTTTTCAATTCGGAGTCACCTAGTGCAG,9500 fluorescence intensity (a.u.)
8,AACATGATTAATATTTTATGTGTGACTTGCCTTTTTAATTCGGAGTCACCTAGTGCAG,8460 fluorescence intensity (a.u.)
9,CACCTCACCCAACCAATCCGCCGCAGCCACCTCACCGCGTCGGAGTCACCTAGTGCAG,8300 fluorescence intensity (a.u.)
10,AGCCATTCTCTGTTCCAAGTACAAAGGACAGCTATTTAACCGGAGTCACCTAGTGCAG,8120 fluorescence intensity (a.u.)
11,GTCGCCGCCTCCATCTCCTGCGTCGCCGCGGCGTCTCACACGGAGTCACCTAGTGCAG,10000 fluorescence intensity (a.u.)
12,GCATTCATCTCAGTCTCTCTCAGCTACCTCCCGCGATCCGCGGAGTCACCTAGTGCAG,9350 fluorescence intensity (a.u.)
13,AAGGAGTGCTAGGGTTCCGTCCGTCCCAGCCTGGCCTACCCGGAGTCACCTAGTGCAG,8410 fluorescence intensity (a.u.)
14,AGAACTAGAAGACCACACGCTGTCTCACTTGTTGCAAAATCGGAGTCACCTAGTGCAG,8050 fluorescence intensity (a.u.)
15,GTGCGACGGCGGCGGCGAAGTCAGTCCCCTCCTCGAGGGGCGGAGTCACCTAGTGCAG,27700 fluorescence intensity (a.u.)
16,GTACCGACAACACCAAGCTTGTCTGGCCTCAACTCTCTCGCGGAGTCACCTAGTGCAG,8370 fluorescence intensity (a.u.)
17,TGGAGGAGGTGGTGGTGGTGGTAGTAGTAGTACGCCGGGGCGGAGTCACCTAGTGCAG,14200 fluorescence intensity (a.u.)
18,GTAGTAGGTAGCAGCAGTCTCAAACATGTCTTCTGAGTAGCGGAGTCACCTAGTGCAG,9420 fluorescence intensity (a.u.)
19,CGGCCCAAAGTTTATCTTCTTTCCTTCTGACTTCTTTGTGCGGAGTCACCTAGTGCAG,8950 fluorescence intensity (a.u.)
20,CAGATCCCTTAACTTTACACCAAATCCGATTTTCGTTCTTCGGAGTCACCTAGTGCAG,8060 fluorescence intensity (a.u.)
21,TGTTTTTTCTAGTTTCTTATGAGTCATTCCTAGCAAATTTCGGAGTCACCTAGTGCAG,11200 fluorescence intensity (a.u.)
22,GCCAATCCGCCGCCGCCACCTCACCCAACCAATCCGCCGCCGGAGTCACCTAGTGCAG,9900 fluorescence intensity (a.u.)
23,TATTTTTATGGGAATCGGATCTAGCTTTTTTTCACTTTTTCGGAGTCACCTAGTGCAG,9350 fluorescence intensity (a.u.)
24,ACATTGGCCCCAGTTCATCAGTTAGAACGTGTTCACTTTTCGGAGTCACCTAGTGCAG,11200 fluorescence intensity (a.u.)
25,CCCCGTTTGACCGCTTCGTCTCGTACTAGTACTACCGTCTCGGAGTCACCTAGTGCAG,10200 fluorescence intensity (a.u.)
26,ATCCGTTCTCATCTCGTATATTTCTGAGGAAATAAAACTTCGGAGTCACCTAGTGCAG,9110 fluorescence intensity (a.u.)
27,CCGATCCCCTTCCTCTATTTCTTTCGTTTCTTTTTTTTTTCGGAGTCACCTAGTGCAG,8250 fluorescence intensity (a.u.)
